Primary screen of a compound library

Protein sequences, listed by entry. Tags and fused reporters are not part of them.
UniProt E9BF75, entry or part of it: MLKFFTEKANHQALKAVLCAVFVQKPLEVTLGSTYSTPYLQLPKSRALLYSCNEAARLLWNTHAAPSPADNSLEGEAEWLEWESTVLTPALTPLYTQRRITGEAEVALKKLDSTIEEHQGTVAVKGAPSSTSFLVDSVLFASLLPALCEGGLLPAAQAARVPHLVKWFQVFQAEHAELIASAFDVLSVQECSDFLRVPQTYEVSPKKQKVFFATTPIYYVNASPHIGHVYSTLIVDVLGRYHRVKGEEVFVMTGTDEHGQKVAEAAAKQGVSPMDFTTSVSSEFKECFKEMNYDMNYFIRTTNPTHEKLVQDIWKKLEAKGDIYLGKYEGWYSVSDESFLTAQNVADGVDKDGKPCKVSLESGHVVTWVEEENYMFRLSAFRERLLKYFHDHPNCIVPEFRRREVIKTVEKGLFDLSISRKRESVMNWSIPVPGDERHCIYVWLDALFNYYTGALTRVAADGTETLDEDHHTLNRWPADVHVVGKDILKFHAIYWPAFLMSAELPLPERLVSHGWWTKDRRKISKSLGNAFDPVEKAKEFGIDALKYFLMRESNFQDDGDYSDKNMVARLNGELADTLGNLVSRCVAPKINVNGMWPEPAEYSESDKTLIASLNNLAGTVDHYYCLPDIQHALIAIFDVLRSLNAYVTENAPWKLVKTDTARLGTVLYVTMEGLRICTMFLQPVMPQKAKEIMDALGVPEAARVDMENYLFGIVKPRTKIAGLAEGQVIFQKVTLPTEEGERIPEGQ

Results are percentages, as filed. The record does not define 0% and 100%; most values in the screen are far below 50% and negative numbers occur (in some assays of this library far below -100). The compounds are a random part of those screened. A dash means the value is not listed here; it may have been measured.

LdMetRS: 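Methionyl-tRNA synthetase (putative), Leishmania donovani (UniProt E9BF75). Primary screen of methionyl-tRNA synthetase; the read-out is not stated. The test concentration is not given. Values are per cent inhibition. Of about 68,000 compounds tested this way, about 24 (0.035%) reached 50% or more in at least one test.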
Mtb heat-shock: 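Assay on Mycobacterium tuberculosis, filed only as a heat shock assay from Cornell; the read-out is not stated. The concentration is filed as 10 mM, unlikely as a test dose, so the dose is not known. Higher reads as stronger inhibition (inferred: compounds with an IC50 in retests scored well above the rest). About 69,000 compounds were tested under these conditions; 1.4% (about 930) showed 50% or more at least once.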

compound,LdMetRS,Mtb heat-shock
CN(C)c1ncc(C2Nc3cc(Cl)ccc3C3=NCCCN32)cn1 (centres undefined),14.19%,-
COCc1nc2nc(O)c3c(n2n1)NC(=O)CC3c1ccccc1Cl (centres undefined),6.211%,3.765%
N#Cc1csc(CN(CC(=O)N2CCCC2)CC2CCCO2)c1 (centres undefined),7.94%,-1.828%
Cc1ccc(C(=O)NC2CCCN(CC(N)=O)C2)c(=O)[nH]1 (centres undefined),17.14%,10.6%
CN(C)C(=O)COCc1cncc2c1CCN(Cc1ccccn1)C2.O=C(O)C(F)(F)F.O=C(O)C(F)(F)F,-,-5.292%
COc1cc(CNCc2c(C)nn(CC(C)C)c2N(C)C)ccn1,16.67%,-11.02%
COc1nn(C)c2c1CCCN(C(=O)c1ccc3c(c1)OCO3)C2,13.77%,-
O=C(O)C(F)(F)F.[H][C@@]12CN(Cc3ccsc3)CCC[C@]1(C(=O)O)CN(c1ncccn1)C2,-,-27.75%
O=C(CNC(=O)C1(c2ccc(F)cc2F)CCC1)Nc1ccccn1,14.42%,-17.98%
CCN1CCC2(CN(C(C)=O)CC23CCN(CC2CC2)CC3)C1=O.O=C(O)C(F)(F)F (centres undefined),-,-10.34%
CC(=O)N1CCO[C@@H]2CN(C(=O)NCc3cccnc3)CC[C@@H]2C1,21.3%,-
COc1c(F)cccc1C(=O)N(C)Cc1nc(-c2ccccn2)no1,11.64%,-4.668%
Cc1nc(CNC(=O)N2CCN(c3ccc(Cl)cn3)CC2)no1,8.871%,12.1%
Cc1cnc(N2CCC3(CC2)CC3CNC(=O)C2CCC2)nc1.O=C(O)C(F)(F)F (centres undefined),-,-3.539%
Cc1cc(C2CCCN(S(=O)(=O)c3cn[nH]c3)C2)ccn1 (centres undefined),17.42%,-11.48%
COc1nn(C)c2c1CCCN(C(=O)c1ccsc1)C2,9.581%,-10.93%
COCCc1noc(CN2CCCC2c2c(C)nn(C)c2OC)n1 (centres undefined),15.76%,-8.053%
CCCS(=O)(=O)N1CCN(CCOC)c2nc(C)ccc2C1.O=C(O)C(F)(F)F,-,3.151%
Cn1[nH]c(CNc2cccc(Cl)c2)nc1=O,7.58%,6.645%
Cc1cc2[nH]c(O)nc2cc1NCc1ccccc1,16.84%,8.9%
Cc1nsc(N2CCCN(C(=O)CCc3ccsc3)CC2)n1,13.13%,18.18%
COc1ccc(CC(=O)N2Cc3nccn3CC(CN(C)C)C2)cc1 (centres undefined),15.34%,-
CCc1c(C)nn2c(O)cc(C3CCN(C(=O)c4cnn(C)c4)C3)nc12 (centres undefined),13.37%,1.941%
COc1cccc(OCC2CCCN(C(=O)CCn3ccnc3)C2)c1 (centres undefined),8.934%,-13.05%
COCCN1C[C@@H]2CN(c3cnccn3)C[C@@H]2C1=O,15.69%,-
Fc1cccc(N2CCOC3(CCCN(c4cnccn4)C3)C2)c1 (centres undefined),7.299%,-7.351%
CCNC(c1ccc(Cl)cc1)c1cccnc1 (centres undefined),1.14%,-11.42%
Br.Cc1ccccc1OC1CCN(CC(=O)Nc2cnn(C)c2C)CC1,-,-12.51%
Cn1cc(CN2CCO[C@H]3C(Cn4cccn4)CC[C@@H]32)cn1 (some centres undefined),11.42%,-
Cc1ccc(CN(CCCn2ccnc2)Cc2cnn(C)c2)s1,7.717%,-
Nc1nc(C2CCN(C(=O)c3cscn3)CC2)cs1,10.8%,13.43%
CCc1ccc(NC(=O)Nc2c(O)oc3ccccc3c2=O)cc1,13.31%,-24.52%
CCn1ncc2c1C(COCC1CC1)CN(c1ccncn1)C2.O=C(O)C(F)(F)F.O=C(O)C(F)(F)F (centres undefined),-,16.72%
COc1cc(Cl)c(C)cc1NC(=O)CCNc1ccc(C#N)cn1,4.337%,-8.844%
COC(=O)CCCNC(=O)N1CCc2c(F)ccc(F)c2C1,15.32%,1.947%
COC(=O)NCCC(=O)NC(c1ccc(Cl)cc1)C(F)(F)F (centres undefined),12.4%,-0.3153%
CN(C)CCSc1ccc(NC(=O)c2nccn3ccnc23)cc1,11.98%,-40.07%
O=C(c1cscn1)N1C[C@@H]2[C@@H](C1)OCC(=O)N2CC1CCCC1,-56.69%,-
CCCNC(=O)c1nn(CC)cc1NC(=O)c1cn(C)nc1C,6.475%,9.725%
Cc1ccc2nc(C3CCN(CC(C)C)CC3)nc(O)c2c1,9.143%,-21%
Cc1nc(CNC(=O)CC2C(=O)NCCN2CCC(C)C)n[nH]1 (centres undefined),-5.783%,31.95%
O=C(NCCCO)Nc1ccccc1,6.873%,-0.2274%
CNC(=O)Cn1ccc2ccc(NC(=O)NC(C)C(C)C)cc21 (centres undefined),9.704%,10.24%
CCCc1cc(C(=O)N2CCCC2c2cccnc2)[nH]n1 (centres undefined),5.185%,3.291%
CC(Nc1cccc2c1OCCO2)C(=O)Nc1cccc(C#N)c1 (centres undefined),14.1%,-11.49%
CN1CCCn2c(nc(CNC(=O)c3nccn3C)cc2=O)C1,3.136%,-
CCc1ccc(NC(=O)N2C[C@H]3C[C@H](C(=O)NC)[C@@H](C2)O3)cc1,11.76%,-
O=C(c1cc(-n2cccn2)ccc1Cl)N1CCCC(N2CCCC2)C1 (centres undefined),20%,1.402%
CCn1nc(C)cc1C(=O)NCc1nc(C)no1,20.72%,14.97%
O=C(COC(=O)Cc1cccs1)NCc1cccc(NC(=O)C2CC2)c1,15.75%,41.39%
CS(=O)(=O)N1C[C@H]2CCCN(Cc3cccs3)[C@H]2C1,-1.73%,-
CCOC(=O)C1(Cc2ccc(Cl)cc2)CCN(Cc2ncc[nH]2)CC1,14.07%,19.81%
CCc1nc(C2CCCN(C(=O)c3ccc(F)cc3)C2)no1 (centres undefined),22.1%,5.537%
COCCn1cc2c(n1)C(CNCc1ccsc1)OCC2 (centres undefined),11.68%,-
CCn1ncc2c1CCCC2NCc1cc(C)ccc1OC (centres undefined),18.87%,-5.026%
CCCS(=O)(=O)N1C[C@H]2C[C@H](C(=O)N3CCCC3)[C@@H](C1)O2,12.89%,-
O=C(CN1CC(n2cccn2)C1)NCC1(c2ccccc2)CCC1,4.337%,17.08%
O=C(O)C(F)(F)F.[H][C@@]12CCN(Cc3cccc(C)n3)[C@@]1([H])CCN2C(=O)c1cc(C)oc1C,-,-2.08%
O=C(c1cnc(O)cc1O)N1CCCC(CCc2ccccc2F)C1 (centres undefined),14.88%,2.886%
CC(C)(C)c1coc([C@@H]2COCCN2Cc2cnc3ccccc3c2)n1,6.015%,-5.442%
Cc1ccc(C(=O)N2CCc3c(CNc4ncccn4)cncc3C2)o1.Cl,-,-7.52%
O=C(O)C(F)(F)F.O=C(O)C(F)(F)F.[H][C@@]12COC[C@]1(COCc1ccncc1)CN(Cc1cccc(OC)c1)C2,-,-3.091%
Cc1ccc(CN2CCC(F)(F)C3(CCN(c4cnccn4)C3)C2)o1.O=C(O)C(F)(F)F.O=C(O)C(F)(F)F (centres undefined),-,6.15%
Cn1cccc1CN1CCC2(CCCN(C(=O)c3cccnc3)C2)CC1.O=C(O)C(F)(F)F.O=C(O)C(F)(F)F,-,-16.05%
Cc1nc(-c2nnc[nH]2)sc1C(=O)N1CCCC1c1cccs1 (centres undefined),3.971%,-6.671%
O=C(Nc1ccc(F)cc1)C(c1ccccc1)N1CCOCC1 (centres undefined),-2.653%,-
CCc1ncnc(N2CCCC(c3cc(C(N)=O)[nH]n3)C2)c1F (centres undefined),13.36%,-1.867%
CN(Cc1ccc(C#N)cc1)C(=O)c1ccn(C)c(=O)c1,11.48%,-13.81%
COCCCNc1c(-c2ccc(C)cc2)c(=O)c1=O,-6.843%,-0.7229%
COc1cccc(SCC(=O)N2CCCC(N3CCCC3=O)C2)c1 (centres undefined),21.53%,-3.672%
CN(Cc1ccccn1)C1COC2(CCN(Cc3cccnc3)CC2)C1 (centres undefined),7.317%,-18.49%
O=C(O)C(F)(F)F.O=C(O)C(F)(F)F.O=C(O)c1c(-c2ccncc2)ncc2c1CCN(CC1CCOC1)C2 (centres undefined),-,1.02%
Cn1ncc2c1CCCN(C(=O)C1CCC1)C2,4.658%,6.838%
CN(C)CCn1c2c(ccc1=O)CC(NC(=O)c1ccsc1)CC2.O=C(O)C(F)(F)F (centres undefined),-,45.43%
CN(C)CCOCC1CN(Cc2cccc(F)c2)Cc2nccn2C1 (centres undefined),-8.589%,-
Cc1cc(C)cc(N2CCN(Cc3cccnc3)CC2=O)c1,1.535%,25.19%
Cc1ccc2c(-c3nc4c([nH]3)CCNC4C(=O)O)cccc2n1 (centres undefined),29.05%,-16.02%
Cc1ccc2cccc(C(=O)N3CCN(c4cccnn4)CC3)c2n1,6.529%,-0.2773%
Cc1ncsc1CN1Cc2cnn(C)c2C(COCC2CC2)C1 (centres undefined),12.06%,-
CCc1nnsc1C(=O)N1CCOC(c2nc(C(C)C)n[nH]2)C1 (centres undefined),12.3%,2.492%
CC(C)CN1CC(C(=O)NCCc2c[nH]cn2)CC1=O (centres undefined),11.29%,-1.186%

The last 7 entries again:

compound	LdMetRS	Mtb heat-shock
CN(C)CCOCC1CN(Cc2cccc(F)c2)Cc2nccn2C1 (centres undefined)	-8.589%	-
Cc1cc(C)cc(N2CCN(Cc3cccnc3)CC2=O)c1	1.535%	25.19%
Cc1ccc2c(-c3nc4c([nH]3)CCNC4C(=O)O)cccc2n1 (centres undefined)	29.05%	-16.02%
Cc1ccc2cccc(C(=O)N3CCN(c4cccnn4)CC3)c2n1	6.529%	-0.2773%
Cc1ncsc1CN1Cc2cnn(C)c2C(COCC2CC2)C1 (centres undefined)	12.06%	-
CCc1nnsc1C(=O)N1CCOC(c2nc(C(C)C)n[nH]2)C1 (centres undefined)	12.3%	2.492%
CC(C)CN1CC(C(=O)NCCc2c[nH]cn2)CC1=O (centres undefined)	11.29%	-1.186%

Source: ChEMBL document CHEMBL3988442, “University of Dundee, Small-Polar-MMV Screening Library” (2021).